For experiment [1], the target named is Rhesus monkey CD40 extracellular domain (recombinant) (Rhesus monkey) (UniProt F6SNI1). In words: ELISA on coated CD40 extracellular domain. (ELISA stands for enzyme-linked immunosorbent assay.)
Experiment [2] has the same target. The experiment is described as follows: ELISA, plate coated with recombinant rhesus monkey CD40 extracellular domain, antibody (human IgG4 format) in serial dilution, anti-human IgG-HRP, OD450.
Experiment [3] has the same target. The experiment is described as follows: ELISA on coated CD40 extracellular domain; antibody as human IgG4.
Experiment [4] concerns the target human CD40 extracellular domain (recombinant) (human) (UniProt P25942). The experiment is described as follows: ELISA, plate coated with recombinant human CD40 extracellular domain, antibody (human IgG4 format) in serial dilution, anti-human IgG-HRP, OD450.
Experiment [5] has the same target. In words: SPR, Biacore 8K. For orientation: SPR reads the build-up and loss of mass on a sensor chip optically.
The target is the same in experiment [6]. The experiment is described as follows: ELISA on coated CD40 extracellular domain; antibody as human IgG4.

Amino acid sequences for entries named in this document (tags omitted). A change or cut given only in a name is not applied to a line headed by its entry. Chains listed by the source or under a name are the forms on record and can include a tag or linker.
Rhesus monkey CD40 extracellular domain (recombinant) (F6SNI1, form named): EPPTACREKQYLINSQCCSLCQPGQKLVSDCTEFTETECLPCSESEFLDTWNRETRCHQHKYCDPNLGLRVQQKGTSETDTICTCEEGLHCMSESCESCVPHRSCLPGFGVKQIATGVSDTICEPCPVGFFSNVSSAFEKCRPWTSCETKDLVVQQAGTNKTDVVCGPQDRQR
UniProt P25942: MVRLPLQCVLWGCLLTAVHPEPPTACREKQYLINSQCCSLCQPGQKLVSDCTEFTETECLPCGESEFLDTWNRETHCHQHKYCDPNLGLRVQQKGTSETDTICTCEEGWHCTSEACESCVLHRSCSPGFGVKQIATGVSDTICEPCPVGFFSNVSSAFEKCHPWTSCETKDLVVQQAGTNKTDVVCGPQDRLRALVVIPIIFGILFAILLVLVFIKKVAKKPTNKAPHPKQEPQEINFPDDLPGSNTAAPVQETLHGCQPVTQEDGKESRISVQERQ

These are yes or no findings as the source states them, for the method shown. Some binding calls cover weakened binding; strength is not graded here.

B1: D1 (antibody, V domains shown)
VH: EVQLQQSGPDLVKPGASMKISCKASVYSFTGYTVNWVKQSHGKSLEWIGLINPYNGGTTYNQKFKGKATLTIDKSSTTAYMELLSLTSEDSAVYYCASSYYSNPYAMDYWGQGTSVTVSS
VL: DIVLNQSQKFMSTSVGDRVSITCKASQNVHTAVAWYQQKPGQSPKALIYLASDRRTGIPDRFTGSGSGTDFTLTIDNVQSEDLADYFCLQHWNYPLTFGAGTKLELK
notes: Full-length chimeric antibody: mouse variable domains with a human IgG1 or IgG4 heavy chain constant domain and a human kappa light chain constant domain; also called anti-CD40 antibody D1; mouse antibody D1
Regarding B1, the binding entry in experiment [1] is “binds”.

B2: D33 (antibody, human IgG4, V domains shown)
VH: QVQLVQSGAEVKKPGASVKVSCKASVYSFTGYTVNWVRQAPGQRLEWMGLINPLNGGTTYNQKFKGRVTLTIDKSASTAYMELSSLRSEDTAVYYCASSYYSTPYAMDYWGQGTLVTVSS
VL: EIVMTQSPATLSVSPGERATLSCKASQNVHTRVAWYQQKPGQAPRLLIYLASDRRTGIPARFSGSGSGTEFTLTISSLQSEDFAVYYCLQHWNYPLTFGQGTKVEIK
notes: also called optimized anti-CD40 antibody D33
B2: the binding result in experiment [2] and in experiment [3] was “binds” each time.

B3: D47 (antibody, human IgG4, V domains shown)
VH: QVQLVQSGAEVKKPGASVKVSCKASVYSFTGYTVNWVRQAPGQRLEWMGLINPYTGGTTYNQKFKGRVTLTIDKSASTAYMELSSLRSEDTAVYYCASSYYSNPYASDYWGQGTLVTVSS
VL: EIVMTQSPATLSVSPGERATLSCKASQNVHTRVAWYQQKPGQAPRLLIYLASDRRTGIPARFSGSGSGTEFTLTISSLQSEDFAVYYCLQHWTYPLTFGQGTKVEIK
notes: also called optimized anti-CD40 antibody D47
For the molecule B3, the binding entry in experiment [2] and in experiment [3] was “binds” each time.

B4: D42 (antibody, V domains shown)
VH: QVQLVQSGAEVKKPGASVKVSCKASVYSFTGYTVNWVRQAPGQRLEWMGLIVPYNGGTTYNQKFKGRVTLTIDKSASTAYMELSSLRSEDTAVYYCASSRYSNPYAMDYWGQGTLVTVSS
VL: EIVMTQSPATLSVSPGERATLSCKASQNVHTRVAWYQQKPGQAPRLLIYLASDRRTGIPARFSGSGSGTEFTLTISSLQSEDFAVYYCLQHWNYPLTFGQGTKVEIK
notes: also called optimized anti-CD40 antibody D42
Take B4: the binding result in experiment [4], in experiment [2], in experiment [5], in experiment [6] and in experiment [3] was “binds” in each case.

B5: D49 (antibody, human IgG4, V domains shown)
VH: QVQLVQSGAEVKKPGASVKVSCKASVYSFTGYTVNWVRQAPGQRLEWMGLINPYNGGTSYNQKFKGRVTLTIDKSASTAYMELSSLRSEDTAVYYCASSPYSNPYAMDYWGQGTLVTVSS
VL: EIVMTQSPATLSVSPGERATLSCKASQNVHTRVAWYQQKPGQAPRLLIYLASDRRTGIPARFSGSGSGTEFTLTISSLQSEDFAVYYCLQHWTYPLTFGQGTKVEIK
notes: also called optimized anti-CD40 antibody D49
For B5, the binding entry in experiment [2] and in experiment [3] was “binds” throughout.

B6: D2 (antibody, V domains shown)
VH: EVHVKQSGAELVKPGASVKLSCTASGFNIKDAYMHWVKQRPEQGLEWIGRIDPANGNTKYDPKFQGKASITTDTSSNTAYLQLSSLTSEDTAVYYCTPNYYGSRYPFAYWGQGTTVTVSS
VL: DIVLTQSPAIMSASPGEKVSITCSASSSVSYMHWFQQKPGTSPKLWIYSTSNLASGVPARFSGSGSGTSYSLTISRMEADDAATYYCQQGSSYPLTFGAGTKLELK
notes: Full-length chimeric antibody: mouse variable domains with a human IgG1 or IgG4 heavy chain constant domain and a human kappa light chain constant domain; also called anti-CD40 antibody D2
Take B6: the binding result in experiment [1] was “binds”.

B7: D3 (antibody, V domains shown)
VH: EVQLQQSGAELVKPGASVKLSCTASGFNIKDSYMHWVKQRPEQGLEWIGRIDPANGNTKYDPKFQGKATITADTSSNTAYLQLSSLTSEDTAVYYCVPNYYGAAYPFAYWGQGTTVTVSS
VL: DIVLIQSPAIMSASPGEKVTITCSASSSVSYMHWFQQKPGTSPKVWIYSTSNLASGVPARFGGSGSGTSYSLTISRMEAEDAATYYCQQGSSYPLTFGAGTKLELK
notes: Full-length chimeric antibody: mouse variable domains with a human IgG1 or IgG4 heavy chain constant domain and a human kappa light chain constant domain; also called anti-CD40 antibody D3
With B7, the binding entry in experiment [1] is “binds”.

B8: D7 (antibody, V domains shown)
VH: QIQLLQSGAELVKPGASVKLSCTASGFNIKDAYMHWVKQRPEQGLEWIGRIDPANGYTKSDPKFQGKATITSDTSSNTAYLQLSSLTSEDTAVYYCAPNYYGSRYPFAYWGQGTLVTVSS
VL: QIVLTQSPAIMSASPGEKVTITCSASSSVSYMHWFQQKPGTSPKIWIYFTSNLASGVPARFSGSGSGTSYSLTISRMEAEDAATYYCQQGSTYPLTFGAGTKLELK
notes: Full-length chimeric antibody: mouse variable domains with a human IgG1 or IgG4 heavy chain constant domain and a human kappa light chain constant domain; also called anti-CD40 antibody D7
As for B8, the binding result in experiment [1] is listed as “binds”.

The values above are taken from patent US20240343817A1 (STAIDSON BEIJING BIOPHARMACEUTICALS, published 2024).
